# According to patent publication US12011449B2, “Therapeutic combinations comprising a c-RAF inhibitor” (Novartis AG, priority 2016, dated 2024):
# The name of at least one read-out is uncertain.
# Assay: Clinical PK of Compound A tablets, once daily, fasted subjects
# Format: in vivo, human
# Details: single 100 mg dose and single 200 mg dose
# Experimental: Compound A was formulated with hydroxypropylmethylcellulose/Hypromellose, colloidal silicon dioxide, microcrystalline cellulose, polyvinylpyrrolidone/Povidone and magnesium stearate, and formed into tablets containing about 50 mg of Compound A. A number of tablets sufficient to provide a desired dosage were administered once daily to fasted subjects. Subjects were treated at doses of 100 mg once per day, or 200 mg once per day. Serial blood samples for PK assessments were collected up to 48 hours after the first dose of Compound A (Cycle 1 Day 1), and up to 24 hours after multiple doses (Cycle 1 Day 15). […] Mean plasma exposure over the dose interval of 24 hours (AUCtau) on day 1 of dosing was 5679 hr·ng/ml and 10019 hr·ng/ml after the 100 mg and 200 mg doses of Compound A, respectively. […] As this study is on-going, all data presented are considered preliminary.
smiles,measurement,value
"Cc1ccc(NC(=O)c2ccnc(C(F)(F)F)c2)cc1-c1cc(OCCO)nc(N2CCOCC2)c1 [Compound A, N-(3-(2-(2-hydroxyethoxy)-6-morpholinopyridin-4-yl)-4-methylphenyl)-2-(trifluoromethyl)isonicotinamide]",time to Cmax,≤ 4 h
